PubChem BioAssay AID1224830 – NIAID, 2016

Aim: 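Host factors that control LPS-induced TNF expression in human macrophages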 (primary screen)
Cells: human THP-1 monocytic leukaemia cells, TNF dual-luciferase reporter clone, PMA-differentiated to macrophage-like cells
Knock-down reagent: siRNA pool against human genes, 50 nM
Time to read-out: LPS for 4 h, given about 3 days after siRNA transfection
Challenge: bacterial LPS (TLR4 ligand), 10 ng/ml
Read-out: 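Ratio of firefly to renilla light, scaled to the plate median and expressed as a robust z-score per replicate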
Scale: TNF reporter robust z-score: higher = stronger TNF reporter response to LPS
Rule for the call: 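a well is active when its z-score exceeds 2.8 or falls below -1.5; control wells carry no call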
In all, the deposit lists about 18,000 reagents; this is an unselected part. In the full data, about 2,900 (16%) are marked active. 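Calls are made per well; low scores hint the gene aids the LPS response, high scores that it dampens it.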 Repeated entries: four replicate wells of each siRNA pool. Reagent sequences are not shown.

MRPL54 (mitochondrial ribosomal protein L54) scored TNF reporter robust z-score -0.27; inactive.
Knock-down of MRPL54 (mitochondrial ribosomal protein L54) came out at: TNF reporter robust z-score -0.3; inactive.
After knock-down of MRPL54 (mitochondrial ribosomal protein L54), the screen gave TNF reporter robust z-score -0.53; inactive.
For MRPL54 (mitochondrial ribosomal protein L54), the values are TNF reporter robust z-score -0.73; inactive.
POLA1 (DNA polymerase alpha 1, catalytic subunit) gave TNF reporter robust z-score 0.27; inactive.
With knock-down of POLA1 (DNA polymerase alpha 1, catalytic subunit), the record shows TNF reporter robust z-score 0.04; inactive.
After knock-down of POLA1 (DNA polymerase alpha 1, catalytic subunit) the results were TNF reporter robust z-score 0.22; inactive.
For POLA1 (DNA polymerase alpha 1, catalytic subunit), the values are TNF reporter robust z-score 0.92; inactive.
Knock-down of FHIP1B (FHF complex subunit HOOK interacting protein 1B) resulted in: TNF reporter robust z-score 1.43; inactive.
For FHIP1B (FHF complex subunit HOOK interacting protein 1B), the values are TNF reporter robust z-score -0.14; inactive.
Knock-down of FHIP1B (FHF complex subunit HOOK interacting protein 1B) gave: TNF reporter robust z-score 0.59; inactive.
After knock-down of FHIP1B (FHF complex subunit HOOK interacting protein 1B) the results were TNF reporter robust z-score -0.01; inactive.
Silencing of ACIN1 (apoptotic chromatin condensation inducer 1) resulted in: TNF reporter robust z-score -1.73; active.
Against ACIN1 (apoptotic chromatin condensation inducer 1), the entry reads TNF reporter robust z-score -1.53; active.
ACIN1 (apoptotic chromatin condensation inducer 1) showed TNF reporter robust z-score -1.52; active.
Knock-down of ACIN1 (apoptotic chromatin condensation inducer 1) resulted in: TNF reporter robust z-score -1.13; inactive.
Depletion of C17orf67 (chromosome 17 open reading frame 67) gave: TNF reporter robust z-score -0.87; inactive.
After knock-down of C17orf67 (chromosome 17 open reading frame 67), the screen gave TNF reporter robust z-score 0.51; inactive.
Depletion of C17orf67 (chromosome 17 open reading frame 67) resulted in: TNF reporter robust z-score 0.48; inactive.
C17orf67 (chromosome 17 open reading frame 67) gave TNF reporter robust z-score 0.52; inactive.
With knock-down of APOL4 (apolipoprotein L4), the screen gave TNF reporter robust z-score -0.21; inactive.
Against APOL4 (apolipoprotein L4) the deposit lists TNF reporter robust z-score 0.51; inactive.
Silencing of APOL4 (apolipoprotein L4) resulted in: TNF reporter robust z-score 0; inactive.
Depletion of APOL4 (apolipoprotein L4) came out at: TNF reporter robust z-score -0.85; inactive.
With knock-down of MAGEB2 (MAGE family member B2), the record shows TNF reporter robust z-score -0.71; inactive.
After knock-down of MAGEB2 (MAGE family member B2), the record shows TNF reporter robust z-score -0.22; inactive.
With knock-down of MAGEB2 (MAGE family member B2), the screen gave TNF reporter robust z-score 0.37; inactive.
MAGEB2 (MAGE family member B2) scored TNF reporter robust z-score -0.23; inactive.
INPP5K (inositol polyphosphate-5-phosphatase K) scored TNF reporter robust z-score -1.13; inactive.
With knock-down of INPP5K (inositol polyphosphate-5-phosphatase K) the results were TNF reporter robust z-score -0.35; inactive.
After knock-down of INPP5K (inositol polyphosphate-5-phosphatase K) the results were TNF reporter robust z-score -0.8; inactive.
Knock-down of INPP5K (inositol polyphosphate-5-phosphatase K) came out at: TNF reporter robust z-score -0.87; inactive.
ZNF626 (zinc finger protein 626) gave TNF reporter robust z-score 0.35; inactive.
For ZNF626 (zinc finger protein 626), the values are TNF reporter robust z-score 0.17; inactive.
Knock-down of ZNF626 (zinc finger protein 626) gave: TNF reporter robust z-score 0.13; inactive.
For ZNF626 (zinc finger protein 626) the deposit lists TNF reporter robust z-score 0.04; inactive.
LRP11 (LDL receptor related protein 11) scored TNF reporter robust z-score -1.17; inactive.
With knock-down of LRP11 (LDL receptor related protein 11), the record shows TNF reporter robust z-score -1.09; inactive.
LRP11 (LDL receptor related protein 11) showed TNF reporter robust z-score -0.68; inactive.
LRP11 (LDL receptor related protein 11) showed TNF reporter robust z-score -1.11; inactive.
With knock-down of RNF115 (ring finger protein 115), the screen gave TNF reporter robust z-score 0.78; inactive.
RNF115 (ring finger protein 115) showed TNF reporter robust z-score -1.39; inactive.
Knock-down of RNF115 (ring finger protein 115) resulted in: TNF reporter robust z-score -0.11; inactive.
RNF115 (ring finger protein 115) gave TNF reporter robust z-score 0.01; inactive.
PPM1M (protein phosphatase, Mg2+/Mn2+ dependent 1M) gave TNF reporter robust z-score -1.24; inactive.
For PPM1M (protein phosphatase, Mg2+/Mn2+ dependent 1M), the entry reads TNF reporter robust z-score -1.13; inactive.
For PPM1M (protein phosphatase, Mg2+/Mn2+ dependent 1M), the entry reads TNF reporter robust z-score -1.84; active.

A stretch from the list above, as a working copy:
ZNF626 (zinc finger protein 626): TNF reporter robust z-score = 0.35; call = inactive
ZNF626 (zinc finger protein 626): TNF reporter robust z-score = 0.17; call = inactive
ZNF626 (zinc finger protein 626): TNF reporter robust z-score = 0.13; call = inactive
ZNF626 (zinc finger protein 626): TNF reporter robust z-score = 0.04; call = inactive
LRP11 (LDL receptor related protein 11): TNF reporter robust z-score = -1.17; call = inactive
LRP11 (LDL receptor related protein 11): TNF reporter robust z-score = -1.09; call = inactive
LRP11 (LDL receptor related protein 11): TNF reporter robust z-score = -0.68; call = inactive
LRP11 (LDL receptor related protein 11): TNF reporter robust z-score = -1.11; call = inactive
